# From patent US11072584B2, “Carbon monoxide releasing norbornenone compounds” (OTAGO INNOVATION LIMITED, priority 2015, dated 2021)
# Experiment: CO release shown by characterisation of reaction byproduct (NMR, mass spectrometry)
# Format: physicochemical
# Details: optimal pH (pH=7.4); byproducts characterised by NMR and mass spectrometry
row,SMILES,release of CO with formation of byproduct BP-X
1,"CC(C)(C)OC(=O)NCCN(CCN1C(=O)C2C3(C)C(=O)C(C)(C(c4ccccc4)=C3c3ccccc3)C2(Br)C1=O)C(=O)OC(C)(C)C (stereo not drawn) [oCOm-22, Tert-Butyl (2-(3a-bromo-4,7-dimethyl-1,3,8-trioxo-5,6-diphenyl-3a,4,7,7a-tetrahydro-1H-4,7-methanoisoindol-2(2H)-yl)ethyl)(2-((tert-butoxycarbonyl)amino)ethyl)carbamate]",releases CO forming BP-22
2,"CC12C(=O)C(C)(C(c3ccccc3)=C1c1ccccc1)C1(Br)C(=O)N(CCC(=O)ON3C(=O)CCC3=O)C(=O)C21 (stereo not drawn) [oCOm-17, 2,5-Dioxopyrrolidin-1-yl 3-(3a-bromo-4,7-dimethyl-1,3,8-trioxo-5,6-diphenyl-1,3,3a,4,7,7a-hexahydro-2H-4,7-methanoisoindol-2-yl)propanoate]",releases CO forming BP-17
3,"CC12C(=O)C(C)(C(c3ccccc3)=C1c1ccccc1)C1(S(=O)(=O)c3ccccc3)C(=O)N(c3ccccc3)C(=O)C21 (stereo not drawn) [oCOm-6, 3a-Phenylsulfonyl-3a,4,7,7a-tetrahydro-4,7-dimethyl-2,5,6-triphenyl-4,7-methano-1H-isoindole-1,3,8(2H)-trione]",release carbon monoxide
4,"CC12C(=O)C(C)(C(c3ccccc3)=C1c1ccccc1)C1(Br)C(=O)N(c3ccccc3)C(=O)C21 (stereo not drawn) [oCOm-1, 3a-Bromo-3a,4,7,7a-tetrahydro-4,7-dimethyl-2,5,6-triphenyl-4,7-methano-1H-isoindole-1,3,8(2H)-trione]",release carbon monoxide
5,"CC(=O)OCCN1C(=O)C2C3(C)C(=O)C(C)(C(c4ccccc4)=C3c3ccccc3)C2(Br)C1=O (stereo not drawn) [oCOm-16, 3a-Bromo-3a,4,7,7a-tetrahydro-4,7-dimethyl-2-(2-acetoxyethyl)-5,6-diphenyl-4,7-methano-1H-isoindole-1,3,8(2H)-trione]",releases CO forming BP-16
6,"CC12C(=O)C(C)(C(c3ccccc3)=C1c1ccccc1)C1(Br)C(=O)N(CCC(=O)NC(CO)(CO)CO)C(=O)C21 (stereo not drawn) [oCOm-24, N-(2-Hydroxy-1,1-bis(hydroxymethyl)ethyl)-3-(3a-bromo-4,7-dimethyl-1,3,8-trioxo-5,6-diphenyl-3a,4,7,7a-tetrahydro-1H-4,7-methanoisoindol-2(2H)-yl)propanamide]",releases CO forming BP-24
7,"CC12C(=O)C(C)(C(c3ccccc3)=C1c1ccccc1)C1([S+]([O-])c3ccccc3)C(=O)N(c3ccccc3)C(=O)C21 (stereo not drawn) [oCOm-5, 3a-Phenylsulfinyl-3a,4,7,7a-tetrahydro-4,7-dimethyl-2,5,6-triphenyl-4,7-methano-1H-isoindole-1,3,8(2H)-trione]",release carbon monoxide
8,"CC12C(=O)C(C)(C(c3ccccc3)=C1c1ccccc1)C1(Cl)C(=O)N(c3ccccc3)C(=O)C21 (stereo not drawn) [oCOm-2, 3a-Chloro-3a,4,7,7a-tetrahydro-4,7-dimethyl-2,5,6-triphenyl-4,7-methano-1H-isoindole-1,3,8(2H)-trione]",release carbon monoxide
9,"CC(C)(C)OC(=O)NCCN1C(=O)C2C3(C)C(=O)C(C)(C(c4ccccc4)=C3c3ccccc3)C2(Br)C1=O (stereo not drawn) [oCOm-20, Tert-Butyl (2-(3a-bromo-4,7-dimethyl-1,3,8-trioxo-5,6-diphenyl-3a,4,7,7a-tetrahydro-2H-4,7-methanoisoindol-2-yl)ethyl)carbamate]",releases CO forming BP-20
10,"COCCOCCOCCOc1ccc(C2=C(c3ccc(OCCOCCOCCOC)cc3)C3(C)C(=O)C2(C)C2C(=O)N(c4ccc(OCCOCCOCCOC)cc4)C(=O)C23Br)cc1 (stereo not drawn) [oCOm-15, 3a-Bromo-3a,4,7,7a-tetrahydro-4,7-dimethyl-2,5,6-tri-(4-(2-(2-(2-methoxyethoxy)ethoxy)ethoxy)phenyl)-4,7-methano-1H-isoindole-1,3,8(2H)-trione]",releases CO forming BP-15
11,"CC(=O)OC[C@H]1O[C@@H](Oc2ccc(N3C(=O)C4C5(C)C(=O)C(C)(C(c6ccccc6)=C5c5ccccc5)C4(Br)C3=O)cc2)[C@H](OC(C)=O)[C@@H](OC(C)=O)[C@@H]1OC(C)=O (stereo partly drawn) [oCOm-14, 3a-Bromo-3a,4,7,7a-tetrahydro-4,7-dimethyl-2-(4-(2,3,4,6-tetra-O-acetyl-β-D-glucopyranosyloxy)phenyl)-5,6-diphenyl-4,7-methano-1H-isoindole-1,3,8(2H)-trione]",releases CO forming BP-14
12,"CC12C(=O)C(C)(C(c3ccccc3)=C1c1ccccc1)C1(Sc3ccccc3)C(=O)N(c3ccccc3)C(=O)C21 (stereo not drawn) [oCOm-4, 3a-Phenylthio-3a,4,7,7a-tetrahydro-4,7-dimethyl-2,5,6-triphenyl-4,7-methano-1H-isoindole-1,3,8(2H)-trione]",release carbon monoxide
13,"CC12C(=O)C(C)(C(c3ccccc3)=C1c1ccccc1)C1(Br)C(=O)NC(=O)C21 (stereo not drawn) [oCOm-7, 3a-Bromo-4,7-dimethyl-5,6-diphenyl-3a,4,7,7a-tetrahydro-1H-4,7-methanoisoindole-1,3,8(2H)-trione]",release carbon monoxide
14,"CC12C(=O)C(C)(C(c3ccccc3)=C1c1ccccc1)C1(Br)C(=O)N(c3ccc(O)c([N+](=O)[O-])c3)C(=O)C21 (stereo not drawn) [oCOm-11, 3a-Bromo-3a,4,7,7a-tetrahydro-4,7-dimethyl-2-(4-hydroxy-3-nitrophenyl)-5,6-diphenyl-4,7-methano-1H-isoindole-1,3,8(2H)-trione]",releases CO forming BP-11
15,"CC12C(=O)C(C)(C(c3ccccc3)=C1c1ccccc1)C1(I)C(=O)N(c3ccccc3)C(=O)C21 (stereo not drawn) [oCOm-3, 3a-Iodo-3a,4,7,7a-tetrahydro-4,7-dimethyl-2,5,6-triphenyl-4,7-methano-1H-isoindole-1,3,8(2H)-trione]",release carbon monoxide
16,"CC12C(=O)C(C)(C(c3ccccc3)=C1c1ccccc1)C1(Br)C(=O)N(CCNCCN)C(=O)C21 (stereo not drawn) [oCOm-23, 2-(2-(2-Aminoethyl)aminoethyl)-3a-bromo-3a,4,7,7a-tetrahydro-4,7-dimethyl-5,6-diphenyl-4,7-methano-1H-isoindole-1,3,8(2H)-trione bis-trifluoroacetate Salt]",releases CO forming BP-23
17,"CC12C(=O)C(C)(C(c3ccccc3)=C1c1ccccc1)C1(Br)C(=O)N(c3ccc(O)cc3)C(=O)C21 (stereo not drawn) [oCOm-8, 3a-Bromo-3a,4,7,7a-tetrahydro-4,7-dimethyl-2-(4-hydroxyphenyl)-5,6-diphenyl-4,7-methano-1H-isoindole-1,3,8(2H)-trione]",release carbon monoxide; also recorded: releases CO forming BP-8
18,"CC12C(=O)C(C)(C(c3ccccc3)=C1c1ccccc1)C1(Br)C(=O)N(c3ccc(O)c(O)c3)C(=O)C21 (stereo not drawn) [oCOm-10, 3a-Bromo-3a,4,7,7a-tetrahydro-4,7-dimethyl-2-(3,4-dihydroxyphenyl)-5,6-diphenyl-4,7-methano-1H-isoindole-1,3,8(2H)-trione]",releases CO forming BP-10
19,"CC(C)(C)OC(=O)NCCNC(=O)CCN1C(=O)C2C(Br)(C1=O)[C@]1(C)C(=O)[C@@]2(C)C(c2ccccc2)=C1c1ccccc1 (stereo partly drawn) [oCOm-18, Tert-Butyl (2-(3-((4S,7R)-3a-bromo-4,7-dimethyl-1,3,8-trioxo-5,6-diphenyl-3a,4,7,7a-tetrahydro-1H-4,7-methanoisoindol-2(2H)-yl)propanamido)ethyl)carbamate]",releases CO forming BP-18
20,"CC12C(=O)C(C)(C(c3ccccc3)=C1c1ccccc1)C1(Br)C(=O)N(CCC(=O)NCCN)C(=O)C21.Cl (stereo not drawn) [oCOm-19, N-(2-Aminoethyl)-3-(3a-bromo-4,7-dimethyl-1,3,8-trioxo-5,6-diphenyl-3a,4,7,7a-tetrahydro-1H-4,7-methanoisoindol-2(2H)-yl)propanamide hydrochloride]",releases CO forming BP-19
21,"CC12C(=O)C(C)(C(c3ccccc3)=C1c1ccccc1)C1(Br)C(=O)N(c3ccc4c(c3)OCO4)C(=O)C21 (stereo not drawn) [oCOm-9, 3a-Bromo-3a,4,7,7a-tetrahydro-4,7-dimethyl-5,6-diphenyl-2-tri-(3,4-methylenedioxyphenyl)-4,7-methano-1H-isoindole-1,3,8(2H)-trione]",releases CO forming BP-9

# Entries after “also recorded” stand apart in the source; their conditions may differ. Counter-ions that a name gives are not always drawn.
